# Construct, isoform or probe ends are uncertain for at least one entry. A weaker result is weaker than the reference pair of the same experiment. At least one verdict was read from the data and is not stated in words by the source.
# By UniProt entry, the sequences of proteins in these tests, tags left out.
# UniProt Q06609, whole entry: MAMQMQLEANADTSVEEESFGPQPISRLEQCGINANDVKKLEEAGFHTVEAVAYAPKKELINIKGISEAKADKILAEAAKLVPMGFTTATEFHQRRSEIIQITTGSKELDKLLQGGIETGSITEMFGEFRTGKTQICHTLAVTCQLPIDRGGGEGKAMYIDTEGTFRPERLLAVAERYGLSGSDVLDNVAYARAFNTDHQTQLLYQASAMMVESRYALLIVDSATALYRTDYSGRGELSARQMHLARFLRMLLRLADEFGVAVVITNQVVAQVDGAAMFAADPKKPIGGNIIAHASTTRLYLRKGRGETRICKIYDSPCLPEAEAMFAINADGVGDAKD
# Target: RAD51 (full-length human, HsRAD51) (Homo sapiens) (UniProt Q06609)
# Test: EMSA
# Conditions: 1 mM ATP, 50 mM HEPES pH 7.4, 150 mM NaCl, 10 mM MgAc2, 2 mM CaCl2, 1 mM TCEP, RAD51 with peptide 10 min at room temperature, then DNA 10 min at 37 C, recombinant protein
sequence,measurement,setting,value
TTTTTTTTTTTTTTTTTTTTTTTTTTTTTTTTTTTTTTTTTTTTTTTTTTTTTTTTTTTT [FAM-dT60],binding result,"5 uM RAD51, 100 nM DNA, 10 mM Mg acetate, 2 mM CaCl2, no peptide, residues 1-339, single-stranded DNA",binds
same,binding result,"stapled BRC8-2 peptide SP2 (DVT staple), varying concentrations, depolymerises RAD51 from ssDNA, residues 1-339, single-stranded DNA",binds more weakly
same,binding result,"stapled BRC8-2 peptide SP24 (DVP staple), varying concentrations, depolymerises RAD51 from ssDNA, residues 1-339, single-stranded DNA",binds more weakly
same,binding result,"stapled BRC8-2 peptide SP30 (DVP staple), varying concentrations, depolymerises RAD51 from ssDNA, residues 1-339, single-stranded DNA",binds more weakly
